{"source": "the supplement of paper PMC8728848", "binders": {"B1": {"name": "PX14343I-pdi-501-30-501 (Parabacteroides distasonis) (protein)", "chain": "SDQYSTETFWKTKEHASAGIMGCYNALKLWRSLHTMEFDMLTANAMPYNEANGTQAIGKGEHLSTTALIGSLWKNCYVGIGRTNTFIANVGGVDMDESEKAKMVGEAKFLRAFYYLSLVDKFGGVPLIIDAPNADEQAELPRNSKEEVVNQIVKDLEEAAAVLPDTYASSDLGRATKGAALALKARTLLYNSRWAEAAQAAKQVMESGVYQLFNDYRHFFSEDNKYNCEVIFDIEAKLPEYPTDYDQNIWRLNRPAPLKELVDTYLCVDGKTIEESPLYDPTRPYENRDPRLLKSIVCIGYPYLGKTITKEDVATTGFGVKKYTSYEDDVTIPLVERSAFNFILIRYAEVLLTYAEAQNEASGPDQSVYDAINQLRRRPDINMPEVPKGLTKDQMREVIRRERRIELTFEGLYYSDILRWKTAEKENNGMMHNYEGIEVVKRSFNPKRDYLWPIPYNQTVLNPNLEQNPNWD"}}, "assay_in_all_cases": "glycan array binding signal (z-score within array); higher = stronger binding", "conditions_in_all_cases": "glycan notation: IUPAC condensed, linker removed", "key": {"[1]": {"target": "Neu5Ac(a2-6)Gal(b1-4)GlcNAc(b1-6)GalNAc", "outline": "(§1)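 Arrays were curated from the Consortium for Functional Glycomics database, 3228 in total, and kept only where the protein sequence was available. Binding is expressed as a within-array Z-score. This score was averaged across arrays of the same protein sequence at different concentrations or buffers and across linkers, and negative values can be read as non-binding.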"}, "[2]": {"target": "Neu5Ac(a2-6)Gal(b1-4)GlcNAc(b1-6)[Gal(b1-3)GlcNAc(b1-3)]Gal(b1-4)Glc", "outline": "as §1"}, "[3]": {"target": "Neu5Ac(a2-6)Gal(b1-4)GlcNAc(b1-6)[Gal(b1-3)]GalNAc", "outline": "as §1"}, "[4]": {"target": "Neu5Ac(a2-6)Gal(b1-4)GlcNAc6S", "outline": "as §1"}, "Neu5Ac(a2-6)GalNAc": {"target": "Neu5Ac(a2-6)GalNAc", "outline": "as §1"}, "[5]": {"target": "Neu5Ac(a2-6)GalNAc(b1-4)GlcNAc", "outline": "as §1"}, "[6]": {"target": "Neu5Ac(a2-6)GalNAc(b1-4)GlcNAc6S", "outline": "as §1"}, "[7]": {"target": "Neu5Ac(a2-6)GlcNAc(b1-4)GlcNAc", "outline": "as §1"}, "[8]": {"target": "Neu5Ac(a2-6)GlcNAc(b1-4)GlcNAc(b1-4)GlcNAc", "outline": "as §1"}, "Neu5Ac(a2-8)Neu5Ac": {"target": "Neu5Ac(a2-8)Neu5Ac", "outline": "as §1"}, "[9]": {"target": "Neu5Ac(a2-8)Neu5Ac(a2-3)Gal(b1-3)GalNAc(b1-4)[Neu5Ac(a2-3)]Gal(b1-4)Glc", "outline": "as §1"}, "[10]": {"target": "Neu5Ac(a2-8)Neu5Ac(a2-3)Gal(b1-3)GalNAc(b1-4)[Neu5Ac(a2-8)Neu5Ac(a2-3)]Gal(b1-4)Glc", "outline": "as §1"}, "[11]": {"target": "Neu5Ac(a2-8)Neu5Ac(a2-3)Gal(b1-4)Glc", "outline": "as §1"}, "[12]": {"target": "Neu5Ac(a2-8)Neu5Ac(a2-3)Gal(b1-4)GlcNAc", "outline": "as §1"}, "[13]": {"target": "Neu5Ac(a2-8)Neu5Ac(a2-3)[Gal(b1-3)GalNAc(b1-4)]Gal(b1-4)Glc", "outline": "as §1"}, "[14]": {"target": "Neu5Ac(a2-8)Neu5Ac(a2-3)[GalNAc(b1-4)]Gal(b1-4)Glc", "outline": "as §1"}, "[15]": {"target": "Neu5Ac(a2-8)Neu5Ac(a2-8)Neu5Ac", "outline": "as §1"}, "[16]": {"target": "Neu5Ac(a2-8)Neu5Ac(a2-8)Neu5Ac(a2-3)Gal(b1-4)Glc", "outline": "as §1"}, "[17]": {"target": "Neu5Ac(a2-8)Neu5Ac(a2-8)Neu5Ac(a2-3)[Gal(b1-3)GalNAc(b1-4)]Gal(b1-4)Glc", "outline": "as §1"}, "[18]": {"target": "Neu5Ac(a2-8)Neu5Ac(a2-8)Neu5Ac(a2-3)[GalNAc(b1-4)]Gal(b1-4)Glc", "outline": "as §1"}, "[19]": {"target": "Neu5Ac(a2-8)Neu5Ac(a2-8)Neu5Ac(a2-8)Neu5Ac(a2-3)[GalNAc(b1-4)]Gal(b1-4)Glc", "outline": "as §1"}, "[20]": {"target": "Neu5Ac(a2-8)Neu5Gc(a2-3)Gal(b1-4)GlcNAc", "outline": "as §1"}, "[21]": {"target": "Neu5Ac(b2-6)Gal(b1-4)GlcNAc", "outline": "as §1"}, "Neu5Ac(b2-6)GalNAc": {"target": "Neu5Ac(b2-6)GalNAc", "outline": "as §1"}, "[22]": {"target": "Neu5Ac9Ac(a2-3)Gal(b1-3)GlcNAc", "outline": "as §1"}, "[23]": {"target": "Neu5Ac9Ac(a2-3)Gal(b1-4)GlcNAc", "outline": "as §1"}, "[24]": {"target": "Neu5Ac9Ac(a2-6)Gal(b1-4)GlcNAc", "outline": "as §1"}, "[25]": {"target": "Neu5Gc(a2-3)Gal(b1-3)GlcNAc", "outline": "as §1"}, "[26]": {"target": "Neu5Gc(a2-3)Gal(b1-3)[Fuc(a1-4)]GlcNAc", "outline": "as §1"}, "Neu5Gc(a2-3)Gal(b1-4)Glc": {"target": "Neu5Gc(a2-3)Gal(b1-4)Glc", "outline": "as §1"}, "[27]": {"target": "Neu5Gc(a2-3)Gal(b1-4)GlcNAc", "outline": "as §1"}, "[28]": {"target": "Neu5Gc(a2-3)Gal(b1-4)GlcNAc(b1-3)Gal(b1-4)GlcNAc(b1-2)Man(a1-3)[Neu5Gc(a2-3)Gal(b1-4)GlcNAc(b1-3)Gal(b1-4)GlcNAc(b1-2)Man(a1-6)]Man(b1-4)GlcNAc(b1-4)GlcNAc", "outline": "as §1"}, "[29]": {"target": "Neu5Gc(a2-3)Gal(b1-4)[Fuc(a1-3)]GlcNAc", "outline": "as §1"}, "[30]": {"target": "Neu5Gc(a2-6)Gal(b1-4)GlcNAc", "outline": "as §1"}, "Neu5Gc(a2-6)GalNAc": {"target": "Neu5Gc(a2-6)GalNAc", "outline": "as §1"}, "[31]": {"target": "Neu5Gc(a2-8)Neu5Ac(a2-3)Gal(b1-4)GlcNAc", "outline": "as §1"}, "[32]": {"target": "Neu5Gc(a2-8)Neu5Gc(a2-3)Gal(b1-4)GlcNAc", "outline": "as §1"}, "[33]": {"target": "Neu5Gc(a2-8)Neu5Gc(a2-3)Gal(b1-4)GlcNAc(b1-3)Gal(b1-4)GlcNAc", "outline": "as §1"}}, "note": "Some of the results follow."}
{"binder": "B1", "values": [{"measurement": "glycan array binding signal (z-score)", "setting": "[1]", "result": -0.818}, {"measurement": "glycan array binding signal (z-score)", "setting": "[2]", "result": -0.851}, {"measurement": "glycan array binding signal (z-score)", "setting": "[3]", "result": 0.079}, {"measurement": "glycan array binding signal (z-score)", "setting": "[4]", "result": -0.035}, {"measurement": "glycan array binding signal (z-score)", "setting": "Neu5Ac(a2-6)GalNAc", "result": -0.173}, {"measurement": "glycan array binding signal (z-score)", "setting": "[5]", "result": -0.219}, {"measurement": "glycan array binding signal (z-score)", "setting": "[6]", "result": -0.333}, {"measurement": "glycan array binding signal (z-score)", "setting": "[7]", "result": -0.785}, {"measurement": "glycan array binding signal (z-score)", "setting": "[8]", "result": -0.159}, {"measurement": "glycan array binding signal (z-score)", "setting": "Neu5Ac(a2-8)Neu5Ac", "result": -0.092}, {"measurement": "glycan array binding signal (z-score)", "setting": "[9]", "result": -0.761}, {"measurement": "glycan array binding signal (z-score)", "setting": "[10]", "result": -0.169}, {"measurement": "glycan array binding signal (z-score)", "setting": "[11]", "result": 0.571}, {"measurement": "glycan array binding signal (z-score)", "setting": "[12]", "result": -0.464}, {"measurement": "glycan array binding signal (z-score)", "setting": "[13]", "result": -0.07}, {"measurement": "glycan array binding signal (z-score)", "setting": "[14]", "result": 0.193}, {"measurement": "glycan array binding signal (z-score)", "setting": "[15]", "result": -0.602}, {"measurement": "glycan array binding signal (z-score)", "setting": "[16]", "result": 0.321}, {"measurement": "glycan array binding signal (z-score)", "setting": "[17]", "result": 0.02}, {"measurement": "glycan array binding signal (z-score)", "setting": "[18]", "result": -0.479}, {"measurement": "glycan array binding signal (z-score)", "setting": "[19]", "result": -0.145}, {"measurement": "glycan array binding signal (z-score)", "setting": "[20]", "result": 18.3}, {"measurement": "glycan array binding signal (z-score)", "setting": "[21]", "result": -0.616}, {"measurement": "glycan array binding signal (z-score)", "setting": "Neu5Ac(b2-6)GalNAc", "result": -0.163}, {"measurement": "glycan array binding signal (z-score)", "setting": "[22]", "result": 0.381}, {"measurement": "glycan array binding signal (z-score)", "setting": "[23]", "result": -0.014}, {"measurement": "glycan array binding signal (z-score)", "setting": "[24]", "result": -1.17}, {"measurement": "glycan array binding signal (z-score)", "setting": "[25]", "result": -0.548}, {"measurement": "glycan array binding signal (z-score)", "setting": "[26]", "result": -0.573}, {"measurement": "glycan array binding signal (z-score)", "setting": "Neu5Gc(a2-3)Gal(b1-4)Glc", "result": 0.326}, {"measurement": "glycan array binding signal (z-score)", "setting": "[27]", "result": -0.457}, {"measurement": "glycan array binding signal (z-score)", "setting": "[28]", "result": 0.54}, {"measurement": "glycan array binding signal (z-score)", "setting": "[29]", "result": -0.212}, {"measurement": "glycan array binding signal (z-score)", "setting": "[30]", "result": -0.608}, {"measurement": "glycan array binding signal (z-score)", "setting": "Neu5Gc(a2-6)GalNAc", "result": -0.173}, {"measurement": "glycan array binding signal (z-score)", "setting": "[31]", "result": 0.394}, {"measurement": "glycan array binding signal (z-score)", "setting": "[32]", "result": -0.149}, {"measurement": "glycan array binding signal (z-score)", "setting": "[33]", "result": 0.077}]}
